# Laboratory results: PubChem BioAssay AID330 (DTP/NCI, 2004)
# The list shows only some results of the screen, not a fair sample: it gathers tests that were run many times, whatever their T/C, doses with no T/C, and many T/C values between a quarter and a half above the control. Other doses and runs of a compound stand elsewhere. T/C: endpoint of the treated group in % of that of the vehicle group. Some doses have a count of surviving animals in place of a T/C: the source files T/C as zero there, which appears to mark a toxic dose or a test without result, not a measured value. Some doses without a T/C left all or most animals alive at the check, yet need not have been tolerated: the source hardly ever lists a survival T/C far under the control, and the zero likely stands for such cases as well. Counts of survivors are from the toxicity check (mostly the fifth day) where no day follows; animals may have died later. Schedules are NCI's codes, taken here to give the interval after Q, in days (D) or hours (H), and the number of doses after X. Some entries hold several experiments; the results are listed from low to high. For survival time, the PubChem record calls one and a half times the control and up active, and a quarter to a half above the control has no call in these data; cut-offs in other NCI protocols can differ. Some schedules carry Z or #; the key to these is not given. Some T/C values carry the count of animals alive at the toxicity check (mostly the fifth day); without a count, all were alive then.
# System: P388 leukemia ip, CD2F1 mice, survival T/C
# Test: NCI In Vivo Anticancer Drug Screen. Data for tumor model P388 Leukemia (intraperitoneal) in CD2F1 (CDF1) mice
# Settings: T/C endpoint: median survival time, higher T/C = longer survival
# [1] = dose: 100.0 mg/kg/injection, schedule: Q01DX009 (ip), vehicle: Klucel (hydroxypropylcellulose) (HPC)
# [2] = dose: 50.0 mg/kg/injection, schedule: Q01DX009 (ip), vehicle: Klucel (hydroxypropylcellulose) (HPC)
# [3] = dose: 100.0 mg/kg/injection, schedule: Q01DX009 (ip), vehicle: saline
# [4] = dose: 200.0 mg/kg/injection, schedule: Q01DX009 (ip), vehicle: saline
# [5] = dose: 200.0 mg/kg/injection, schedule: Q01DX009 (ip), vehicle: saline with Tween-80
# [6] = dose: 50.0 mg/kg/injection, schedule: Q01DX005 (ip), vehicle: saline with Tween-80
# [7] = dose: 100.0 mg/kg/injection, schedule: Q01DX005 (ip), vehicle: saline with Tween-80
# [8] = dose: 200.0 mg/kg/injection, schedule: Q01DX005 (ip), vehicle: saline with Tween-80
# [9] = dose: 50.0 mg/kg/injection, schedule: Q01DX009 (ip), vehicle: saline with Tween-80
# [10] = dose: 100.0 mg/kg/injection, schedule: Q01DX009 (ip), vehicle: saline with Tween-80
# [11] = dose: 50.0 mg/kg/injection, schedule: Q01DX009 (ip), vehicle: water
# [12] = dose: 240.0 mg/kg/injection, schedule: Q01DX005 (ip), vehicle: saline with Tween-80
# [13] = dose: 50.0 mg/kg/injection, schedule: Q01DX009 (ip), vehicle: saline
structure (smiles),measurement,setting,value
CCOC(=O)N/N=C/c1ccc(N(C)CCC#N)cc1,survivor count,[1],6 of 6
same,survivor count,"dose: 400.0 mg/kg/injection, schedule: Q01DX009 (ip), vehicle: Klucel (hydroxypropylcellulose) (HPC)",3 of 6
c1ccc2c(NCCCCCCCCCCNc3c4ccccc4nc4ccccc34)c3ccccc3nc2c1,T/C,"dose: 2.5 mg/kg/injection, schedule: Q## X009 (ip), vehicle: lactic acid",133 % of control
C=CCNC(=S)N/N=C(\C)c1ccccn1,survivor count,[2],2 of 6
same,survivor count,[1],0 of 6
same,survivor count,"dose: 200.0 mg/kg/injection, schedule: Q01DX009 (ip), vehicle: Klucel (hydroxypropylcellulose) (HPC)",0 of 6
C[N+](C)(C)CCC(=O)c1cccc([N+](=O)[O-])c1,survivor count,[3],0 of 6
same,survivor count,[4],0 of 6
C[CH2][Ge]([CH2]C)[CH2]/C=C\[CH2][Ge]([CH2]C)[CH2]C,survivor count,[5],4 of 6
COc1ccc(CNC(=O)C#CCOC2CCCCO2)cc1 (centres undefined),survivor count,[6],6 of 6
same,survivor count,[7],6 of 6
COc1cc([N+](=O)[O-])c(OC)c2c(=O)[nH]c(=O)[nH]c12,survivor count,"dose: 25.0 mg/kg/injection, schedule: Q01DX005 (ip), vehicle: Klucel (hydroxypropylcellulose) (HPC)",6 of 6
same,survivor count,"dose: 50.0 mg/kg/injection, schedule: Q01DX005 (ip), vehicle: Klucel (hydroxypropylcellulose) (HPC)",6 of 6
COc1ccc(CCN2C(=O)C(=O)N(c3cccc(Cl)c3)C2=O)cc1OC,survivor count,[2],5 of 6
C/C=C1/CNC2Cc3c([nH]c4ccccc34)C(c3ccc4c5c([nH]c4c3)C3CC4CC(CC)C3N(CC5)C4)CC1C2C(=O)OC (centres undefined),survivor count,"dose: 10.0 mg/kg/injection, schedule: Q01DX009 (ip), vehicle: saline",5 of 6
COc1cc2cc(c1Cl)N1CC(=O)C(C)(O)C(=O)N(C)C(C)C(=O)OC(CC1=O)C1(C)OC1C(C)C1CC(O)(NC(=O)O1)C(OC)/C=C\C=C(\C)C2OC (centres undefined),survivor count,"dose: 16.0 micrograms/kg/injection, schedule: Q01DX009 (ip), vehicle: distilled water + alcohol",6 of 6
same,survivor count,"dose: 32.0 micrograms/kg/injection, schedule: Q01DX009 (ip), vehicle: distilled water + alcohol",5 of 6
c1ccc(-c2ccc[n+](CCC[n+]3cccc(-c4ccccn4)c3)c2)nc1,survivor count,[8],0 of 6
Cc1cccc(NC(N)=S)n1,survivor count,"dose: 200.0 mg/kg/injection, schedule: Q01DX009 (ip), vehicle: other",2 of 6
O=C(Nc1ccc(NC(=O)Nc2ccc(C3=NCCN3)cc2)cc1)Nc1ccc(C2=NCCN2)cc1,T/C,"dose: 250.0 mg/kg/injection, schedule: Q01DX010 (ip), vehicle: saline",131 % of control
same,T/C,"dose: 375.0 mg/kg/injection, schedule: Q01DX010 (ip), vehicle: saline",131 % of control
O=C1Cc2ccccc2N1C(=O)c1ccc(Br)cc1,survivor count,"dose: 400.0 mg/kg/injection, schedule: Q01DX001 (ip), vehicle: Klucel (hydroxypropylcellulose) (HPC)",6 of 6
CCO/C=C1\SC(=S)N(c2ccccc2C)C1=O,T/C,"dose: 10.0 mg/kg/injection, schedule: Q03HX024 (ip), vehicle: saline with Tween-80",127 % of control
same,T/C,"dose: 20.0 mg/kg/injection, schedule: Q03HX024 (ip), vehicle: saline with Tween-80",126 and 130 % of control
same,T/C,"dose: 33.0 mg/kg/injection, schedule: Q01DX009 (ip), vehicle: saline with Tween-80",131 % of control
same,survivor count,"dose: 40.0 mg/kg/injection, schedule: Q03HX024 (ip), vehicle: saline with Tween-80",4 of 6
same,T/C,"dose: 44.0 mg/kg/injection, schedule: Q01DX009 (ip), vehicle: saline with Tween-80",126 % of control
same,T/C,[9],128 % of control
same,T/C,"dose: 66.0 mg/kg/injection, schedule: Q01DX009 (ip), vehicle: saline with Tween-80",128 % of control
same,survivor count,"dose: 80.0 mg/kg/injection, schedule: Q03HX024 (ip), vehicle: saline with Tween-80",4 of 5
same,T/C,[10],127 % of control
same,T/C,[5],127 % of control
same,survivor count,"dose: 300.0 mg/kg/injection, schedule: Q04DX003 (ip), vehicle: saline with Tween-80",5 of 6
same,survivor count,"dose: 400.0 mg/kg/injection, schedule: Q01DX009 (ip), vehicle: saline with Tween-80",1 of 6
CN(C)c1ccc(N=NN=c2n(C)c3ccccc3n2C)c(Cl)c1,survivor count,[6],2 of 6
same,survivor count,[7],0 of 6
same,survivor count,[8],0 of 6
N#Cc1ccc(NN=O)nc1,T/C,"dose: 6.25 mg/kg/injection, schedule: Q01DX009 (ip), vehicle: water",135 % of control
same,survivor count,[11],5 of 6
C=CCc1cc(OC)c(OCC(=O)O)c(OC)c1,survivor count,"dose: 400.0 mg/kg/injection, schedule: Q04DX003 (ip), vehicle: Klucel (hydroxypropylcellulose) (HPC)",3 of 6
NC(CSC(c1ccccc1)(c1ccccc1)c1ccc2ccccc2c1)C(=O)O (centres undefined),survivor count,[9],6 of 6
same,survivor count,[11],6 of 6
same,survivor count,"dose: 66.0 mg/kg/injection, schedule: Q04DX003 (ip), vehicle: saline",3 of 6
same,survivor count,[10],6 of 6
same,survivor count,"dose: 100.0 mg/kg/injection, schedule: Q01DX009 (ip), vehicle: water",4 of 6
same,survivor count,"dose: 100.0 mg/kg/injection, schedule: Q04DX003 (ip), vehicle: saline",5 of 6
same,survivor count,"dose: 150.0 mg/kg/injection, schedule: Q04DX003 (ip), vehicle: saline",5 of 6
CCCCCCCCCCCCCCC(O)C(=O)O (centres undefined),survivor count,[9],6 of 6
same,survivor count,[10],6 of 6
CC12C=CC(O1)C1C(=O)OC(=O)C12 (centres undefined),survivor count,[12],2 of 6
NCC(O)c1cccc(O)c1 (centres undefined),survivor count,"dose: 25.0 mg/kg/injection, schedule: Q01DX009 (ip), vehicle: saline",3 of 6
same,T/C,[13],94 % of control [4 of 6 alive]
same,survivor count,[13],"2 of 6, 3 of 6, 5 of 6"
same,survivor count,[3],3 of 6 and 5 of 6
same,survivor count,[4],1 of 6 and 5 of 6
same,survivor count,"dose: 400.0 mg/kg/injection, schedule: Q01DX009 (ip), vehicle: saline",3 of 6 and 4 of 6
same,survivor count,"dose: 600.0 mg/kg/injection, schedule: Q01DX009 (ip), vehicle: saline",0 of 6
N/N=C/c1cccn1-c1ccccc1Cl,survivor count,[12],1 of 6
COc1cccc2c1C(=O)c1c(O)c3c(c(O)c1C2=O)CC(O)(C(=O)CO)CC3OC1CC(N)C(I)C(C)O1 (centres undefined),T/C,"dose: 2.2 mg/kg/injection, schedule: Q01DX001 (ip), vehicle: saline",134 % of control
same,T/C,"dose: 3.3 mg/kg/injection, schedule: Q01DX001 (ip), vehicle: saline",148 % of control
NC(=S)SCCC(=O)N1CCCCC1,survivor count,"dose: 200.0 mg/kg/injection, schedule: Q04DX002 (ip), vehicle: Klucel (hydroxypropylcellulose) (HPC)",3 of 5
same,survivor count,"dose: 400.0 mg/kg/injection, schedule: Q04DX002 (ip), vehicle: Klucel (hydroxypropylcellulose) (HPC)",1 of 5
CC1=CCC(=O)C=[N+]1Cc1ccccc1,survivor count,"dose: 25.0 mg/kg/injection, schedule: Q01DX005 (ip), vehicle: saline",0 of 6
same,survivor count,"dose: 50.0 mg/kg/injection, schedule: Q01DX005 (ip), vehicle: saline",0 of 6
same,survivor count,"dose: 100.0 mg/kg/injection, schedule: Q01DX005 (ip), vehicle: saline",0 of 6
same,survivor count,"dose: 200.0 mg/kg/injection, schedule: Q01DX005 (ip), vehicle: saline",0 of 6
COC(=O)c1cc(-c2cccc3ccccc23)[nH]c(=O)c1C#N,survivor count,[12],3 of 6
C=CCNC(=S)n1cnc(N)n1,survivor count,[12],1 of 6
CCCC(O)C(C)[N+](=O)[O-] (centres undefined),survivor count,"dose: 400.0 mg/kg/injection, schedule: Q04DX003 (ip), vehicle: saline",3 of 6
